Source: the supplement of paper PMC11732987, “Enantioselective OTUD7B fragment discovery through chemoproteomics screening and high-throughput optimisation” (Communications Chemistry, 2025)
Some of the results follow. The data scatter; read single values as rough.

Biological target: T1, WASHC2A C259 (UniProt Q641Q2)
T1 sequence (whole entry): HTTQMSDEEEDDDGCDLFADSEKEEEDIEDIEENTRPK
Assay: log2 mean competition ratio of IA-DTB cysteine labelling (DMSO/compound) (log2 ratio); higher = stronger cysteine engagement by compound
Conditions: 50 µM; treatment time: 4 h; cell line lysate: HEK293T
Description: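 IA-DTB competitive cysteine chemoproteomics in HEK293T RIPA lysate. Lysates were treated with compound 29 or 30 at 50 or 200 µM for 4 h, then IA-DTB (500 µM, 1 h), trypsin-digested, NeutrAvidin-enriched and analysed by diaPASEF. Competition ratio = intensity DMSO / intensity compound (n=4 treated, n=64 DMSO); binding: mean log2 CR ≥ 1 and p ≤ 0.05 plus QC filters. Target is the cysteine site.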

Question: Which “log2 mean competition ratio” value does the source give for `O=C(CCl)N[C@@H]1CCCc2ccccc21` here?
Answer: -0.362

Question: Which “log2 mean competition ratio” value does the source give for `O=C(CCl)N[C@H]1CCCc2ccccc21` here?
Answer: 0.0396

Same assay, conditions: 200 µM; treatment time: 4 h; cell line lysate: HEK293T

Question: With `O=C(CCl)N[C@@H]1CCCc2ccccc21` as the compound, how does the “log2 mean competition ratio” value read?
Answer: 0.0155

Question: Which “log2 mean competition ratio” value does the source give for `O=C(CCl)N[C@H]1CCCc2ccccc21` here?
Answer: -0.352
